Results from patent US8513197B2, “Ganglioside epitopes for treating Guillain-Barre syndrome” (Georgia Regents University, priority 2009, dated 2013).
Part of at least one peptide drawing is inferred or uncertain, most often the ends. No end group written: not given here.

Tested on: mAb R24
Test: Competitive inhibition ELISA: binding of mAb R24 to GD3-coated plate
Method: Subsequently, an aliquot (100 μl) was added to each well, and each well of the ELISA plate was coated with 0.1 μg GD3. The remaining binding activity of mAb R24 was determined by ELISA. Values are means±SD, n=6 individual experiments. […] The experiment at each dose was performed on three rats, and values are means±SD.
Antiganglioside antibody activity was evaluated for GM1, GM2, GD1a, GD1b, GT1b, GQ1b, GD3, and LOSGD3 by conventional ELISA method (Usuki et al., 2005. J Neurol Sci 232: 37-44). […] Before the ELISA plate assay, each well was treated with 1% BSA/PBS solution. […] After incubation, the reaction mixture was passed through a 0.22-μm syringe filter (Millipore Corp., Bedford, Mass.). Subsequently, 100 μl of the mixture was added to each well and incubated for 1 hr at room temperature. […] The absorbance was measured at 492 nm with a microplate spectrophotometer (Bio-Rad, Hemel Hempstead, United Kingdom). […]
FIG. 8 illustrates the effect of GD3-like peptides on binding of R24 mAb to GD3 by ELISA. […] The remaining binding activity of R24 mAb was measured by ELISA. […]
Anti-ganglioside antibody activity was evaluated for GM1, GM2, GD1a, GD1b, GT1b, GQ1b, GD3, and LOSGD3 by conventional ELISA as previously described (Usuki et al., 2005. J. Neurol. Sci. 232:37-44). […] The absorbance was measured at 492 nm with a microplate spectrophotometer (BioRad, Hemel Hempstead, UK).

RHAYRSMAEWGFLYS [PGD3-4]
inhibitory activity on GD3 reactivity to mAb R24 (ELISA): remarkable inhibitory activities
IC50 (as restated in Example 12, read-out: IC50 values for the active peptides): 150 nM
